Experimental data: article PMC9614079
No constants are given. Whether binding was seen depends on the method and setting. Binding seen in cells or lysates may run through a third protein. Some binding calls cover weakened binding; strength is not graded here.

Protein sequences, listed by entry. Tags and fused reporters are not part of them.
UniProt Q96KP1: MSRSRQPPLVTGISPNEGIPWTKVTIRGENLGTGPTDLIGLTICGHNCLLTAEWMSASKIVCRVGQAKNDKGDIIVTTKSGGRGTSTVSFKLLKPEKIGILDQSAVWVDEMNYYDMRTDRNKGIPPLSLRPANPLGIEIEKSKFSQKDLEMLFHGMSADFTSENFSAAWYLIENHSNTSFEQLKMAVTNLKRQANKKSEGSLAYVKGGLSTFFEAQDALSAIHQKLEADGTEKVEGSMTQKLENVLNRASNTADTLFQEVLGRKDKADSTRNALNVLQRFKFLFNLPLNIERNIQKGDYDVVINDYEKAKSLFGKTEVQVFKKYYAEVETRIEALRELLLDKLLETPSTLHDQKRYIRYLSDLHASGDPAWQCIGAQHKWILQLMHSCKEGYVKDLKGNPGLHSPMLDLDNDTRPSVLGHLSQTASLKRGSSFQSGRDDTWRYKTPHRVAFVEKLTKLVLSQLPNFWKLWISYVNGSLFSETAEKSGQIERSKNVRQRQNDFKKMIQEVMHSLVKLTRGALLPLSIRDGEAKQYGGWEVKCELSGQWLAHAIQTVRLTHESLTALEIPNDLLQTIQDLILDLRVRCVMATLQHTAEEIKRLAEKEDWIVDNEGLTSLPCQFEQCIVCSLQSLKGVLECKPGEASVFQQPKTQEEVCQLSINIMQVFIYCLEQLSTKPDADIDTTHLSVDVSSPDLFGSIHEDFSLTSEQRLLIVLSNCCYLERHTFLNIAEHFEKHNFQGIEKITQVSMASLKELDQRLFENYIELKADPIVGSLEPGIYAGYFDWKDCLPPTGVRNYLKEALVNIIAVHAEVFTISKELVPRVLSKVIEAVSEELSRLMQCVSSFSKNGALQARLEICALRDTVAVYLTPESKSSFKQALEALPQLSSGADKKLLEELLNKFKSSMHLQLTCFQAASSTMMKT

Molecular target: T1, STAT6 (human (endogenous in THP-1)) (UniProt P42226)
T1 sequence: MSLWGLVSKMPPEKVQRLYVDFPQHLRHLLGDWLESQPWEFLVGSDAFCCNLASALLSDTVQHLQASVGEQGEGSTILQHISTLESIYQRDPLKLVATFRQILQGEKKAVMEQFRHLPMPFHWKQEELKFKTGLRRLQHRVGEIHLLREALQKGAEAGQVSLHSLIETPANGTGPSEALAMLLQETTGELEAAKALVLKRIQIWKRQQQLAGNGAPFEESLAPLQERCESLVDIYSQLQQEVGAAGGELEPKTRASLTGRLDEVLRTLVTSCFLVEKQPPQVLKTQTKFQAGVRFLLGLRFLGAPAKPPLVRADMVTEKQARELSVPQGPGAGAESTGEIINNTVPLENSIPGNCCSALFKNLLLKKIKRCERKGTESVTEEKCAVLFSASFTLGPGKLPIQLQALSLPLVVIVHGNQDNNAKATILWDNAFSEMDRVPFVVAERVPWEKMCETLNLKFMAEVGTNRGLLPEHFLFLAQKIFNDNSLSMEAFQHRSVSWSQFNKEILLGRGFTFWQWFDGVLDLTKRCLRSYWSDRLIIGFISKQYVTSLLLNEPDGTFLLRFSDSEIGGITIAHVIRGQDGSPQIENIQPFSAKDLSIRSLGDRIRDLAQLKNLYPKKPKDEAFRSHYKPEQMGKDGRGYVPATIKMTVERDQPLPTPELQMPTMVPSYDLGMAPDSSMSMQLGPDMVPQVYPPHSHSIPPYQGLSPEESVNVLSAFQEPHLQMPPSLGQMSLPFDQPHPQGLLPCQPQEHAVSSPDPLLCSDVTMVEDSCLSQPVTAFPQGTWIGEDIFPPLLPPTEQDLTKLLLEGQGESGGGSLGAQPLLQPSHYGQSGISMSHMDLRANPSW
Test: co-IP; lysates (1 mg protein, 1x DPBS with 1% Triton X-100) of THP-1-derived macrophages in M0 state or M2 state (IL-4 + IL-13); rabbit SEC5 or STAT6 antibody (10 ug) or rabbit IgG isotype control on protein G agarose, 2 h, three washes with PBS; western blot

binding: binds
Substance: SEC5 (from UniProt Q96KP1 1-924)
